# Results taken from article PMC10776498.
# Results are given in words; binding and its absence hold for the method and conditions named. Binding seen in cells or lysates may run through a third protein. Some binding calls cover weakened binding; strength is not graded here. For part of these data: Sequences can lack the tags named with a protein.
# T1: Caspase-4 (human (endogenous in HUVECs)) (UniProt P49662)
# T1 sequence: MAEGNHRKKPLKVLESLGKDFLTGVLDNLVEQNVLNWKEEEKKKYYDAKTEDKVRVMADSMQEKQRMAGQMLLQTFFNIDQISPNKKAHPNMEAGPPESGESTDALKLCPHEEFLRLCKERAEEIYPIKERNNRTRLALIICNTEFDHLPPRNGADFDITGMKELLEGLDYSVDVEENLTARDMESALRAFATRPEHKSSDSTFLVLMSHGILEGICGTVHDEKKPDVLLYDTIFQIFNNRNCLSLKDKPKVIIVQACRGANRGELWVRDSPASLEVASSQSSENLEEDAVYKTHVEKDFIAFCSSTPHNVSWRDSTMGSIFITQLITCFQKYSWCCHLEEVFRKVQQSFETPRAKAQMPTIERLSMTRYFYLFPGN
# T2: Caspase-4 (human (endogenous in HEK293T)) (UniProt P49662)
# T2 sequence: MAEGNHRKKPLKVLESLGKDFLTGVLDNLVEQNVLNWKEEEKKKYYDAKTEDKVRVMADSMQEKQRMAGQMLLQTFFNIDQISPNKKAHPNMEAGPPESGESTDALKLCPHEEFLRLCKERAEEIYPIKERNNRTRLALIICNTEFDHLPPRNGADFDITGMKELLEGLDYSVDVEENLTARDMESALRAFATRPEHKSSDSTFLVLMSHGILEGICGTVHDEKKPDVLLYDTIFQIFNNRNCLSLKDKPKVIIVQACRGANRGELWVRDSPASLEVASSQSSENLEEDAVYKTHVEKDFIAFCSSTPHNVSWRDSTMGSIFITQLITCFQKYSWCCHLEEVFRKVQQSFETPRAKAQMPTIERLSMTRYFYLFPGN
# Key:
# [1] = biological target: T1, Caspase-4 (human (endogenous in HUVECs)); test: co-IP; HUVEC lysates, cells untreated or stimulated with LPS, with or without TMG pretreatment; IP with anti-caspase-4 antibody and Protein A/G agarose overnight at 4 °C; blot with anti-GSDMD
# [2] = biological target: T2, Caspase-4 (human (endogenous in HEK293T)); test: co-IP; 293T cells overexpressing GSDMD or GSDMD S338A, untreated or stimulated with LPS, with or without TMG; IP with anti-Caspase-4 antibody; blot with anti-GSDMD
binding [1],binding [2],Binder
binds,,"Gasdermin-D (protein, UniProt P57764 1-484) MGSAFERVVRRVVQELDHGGEFIPVTSLQSSTGFQPYCLVVRKPSSSWFWKPRYKCVNLSIKDILEPDAAEPDVQRGRSFHFYDAMDGQIQGSVELAAPGQAKIAGGAAVSDSSSTSMNVYSLSVDPNTWQTLLHERHLRQPEHKVLQQLRSRGDNVYVVTEVLQTQKEVEVTRTHKREGSGRFSLPGATCLQGEGQGHLSQKKTVTIPSGSTLAFRVAQLVIDSDLDVLLFPDKKQRTFQPPATGHKRSTSEGAWPQLPSGLSMMRCLHNFLTDGVPAEGAFTEDFQGLRAEVETISKELELLDRELCQLLLEGLEGVLRDQLALRALEEALEQGQSLGPVEPLDGPAGAVLECLVLSSGMLVPELAIPVVYLLGALTMLSETQHKLLAEALESQTLLGPLELVGSLLEQSAPWQERSTMSLPPGLLGNSWGEGAPAWVLLDECGLELGEDTPHVCWEPQAQGRMCALYASLALLSGLSQEPH"
,binds,"FLAG-tagged human GSDMD (S338A) (protein, UniProt P57764 1-484) MGSAFERVVRRVVQELDHGGEFIPVTSLQSSTGFQPYCLVVRKPSSSWFWKPRYKCVNLSIKDILEPDAAEPDVQRGRSFHFYDAMDGQIQGSVELAAPGQAKIAGGAAVSDSSSTSMNVYSLSVDPNTWQTLLHERHLRQPEHKVLQQLRSRGDNVYVVTEVLQTQKEVEVTRTHKREGSGRFSLPGATCLQGEGQGHLSQKKTVTIPSGSTLAFRVAQLVIDSDLDVLLFPDKKQRTFQPPATGHKRSTSEGAWPQLPSGLSMMRCLHNFLTDGVPAEGAFTEDFQGLRAEVETISKELELLDRELCQLLLEGLEGVLRDQLALRALEEALEQGQALGPVEPLDGPAGAVLECLVLSSGMLVPELAIPVVYLLGALTMLSETQHKLLAEALESQTLLGPLELVGSLLEQSAPWQERSTMSLPPGLLGNSWGEGAPAWVLLDECGLELGEDTPHVCWEPQAQGRMCALYASLALLSGLSQEPH"
,binds,"FLAG-tagged GSDMD (protein, UniProt P57764 1-484) MGSAFERVVRRVVQELDHGGEFIPVTSLQSSTGFQPYCLVVRKPSSSWFWKPRYKCVNLSIKDILEPDAAEPDVQRGRSFHFYDAMDGQIQGSVELAAPGQAKIAGGAAVSDSSSTSMNVYSLSVDPNTWQTLLHERHLRQPEHKVLQQLRSRGDNVYVVTEVLQTQKEVEVTRTHKREGSGRFSLPGATCLQGEGQGHLSQKKTVTIPSGSTLAFRVAQLVIDSDLDVLLFPDKKQRTFQPPATGHKRSTSEGAWPQLPSGLSMMRCLHNFLTDGVPAEGAFTEDFQGLRAEVETISKELELLDRELCQLLLEGLEGVLRDQLALRALEEALEQGQSLGPVEPLDGPAGAVLECLVLSSGMLVPELAIPVVYLLGALTMLSETQHKLLAEALESQTLLGPLELVGSLLEQSAPWQERSTMSLPPGLLGNSWGEGAPAWVLLDECGLELGEDTPHVCWEPQAQGRMCALYASLALLSGLSQEPH"
